test: general procedure: solution-phase peptide synthesis; azide method (isoamylnitrite/HCl), p-nitrophenyl active esters (ONp), mixed anhy; conditions: coupling step

Substance | step yield [%]
Z(OMe)-Ala-Gln-Ser-Gly-OBzl | 80
Z(OMe)-Asn-Ser-Phe-Arg(Mts)-Tyr-OBzl | 79
Z(OMe)-Cys(Tmb)-Asn-Ser-Phe-Arg(Mts)-Tyr-OBzl | 83
Z(OMe)-Leu-Gly-Cys(Tmb)-Asn-Ser-Phe-Arg(Mts)-Tyr-OBzl | 91
Z(OMe)-Ser-Phe-Arg(Mts)-Tyr-OBzl | 76

same assay, conditions: late stage modification step

Substance | step yield [%]
H-Ala-Gln-Ser-Gly-Leu-Gly-Cys(SH)-Asn-Ser-Phe-Arg-Tyr-OH | 33
H-Ile-Gly-Ala-Gln-Ser-Gly-Leu-Gly-Cys(SH)-Asn-Ser-Phe-Arg-Tyr-OH | 80
Z(OMe)-Ala-Gln-Ser-Gly-NHNH2 | 96

— patent publication US4673732 (dated 1987)
